From ChEMBL document CHEMBL3988442, “University of Dundee, Small-Polar-MMV Screening Library” (2021).

Protein sequences, listed by entry. Tags and fused reporters are not part of them.
UniProt P9WFT3, whole entry: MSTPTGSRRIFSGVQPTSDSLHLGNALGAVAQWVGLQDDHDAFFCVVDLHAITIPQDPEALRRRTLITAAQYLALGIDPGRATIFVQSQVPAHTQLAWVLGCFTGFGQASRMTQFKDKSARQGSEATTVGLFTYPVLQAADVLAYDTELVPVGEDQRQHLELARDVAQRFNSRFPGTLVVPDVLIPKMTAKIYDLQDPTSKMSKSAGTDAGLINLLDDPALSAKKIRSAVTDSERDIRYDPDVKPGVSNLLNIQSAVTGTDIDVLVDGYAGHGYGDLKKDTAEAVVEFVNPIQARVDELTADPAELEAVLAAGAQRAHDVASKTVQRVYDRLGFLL

Values are the deposited “Percent Effect”, in %. How 0% and 100% were set is not recorded. Most values in the screen are low, and negative values occur. The compounds are a random part of those screened. Two or more numbers in one place are separate tests of the same structure; such repeats can differ widely. A dash means the value is not listed here; it may have been measured.

A: 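Cell assay of Leishmania donovani living inside macrophages; the read-out is not stated. Tested at 30 µM. Direction is inferred from retests: higher values go with stronger inhibition. About 69,000 compounds were tested under these conditions; 1.5% (about 1,000) showed 50% or more at least once.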
B: 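Enzyme assay of tryptophanyl-tRNA synthetase; the read-out is not stated. Target: Tryptophan-tRNA ligase, Mycobacterium tuberculosis (UniProt P9WFT3). Concentration: 10 µM. Higher most likely means stronger inhibition; the record gives no direction and few retests gave an IC50. Of about 65,000 compounds tested this way, about 64 (0.098%) reached 50% or more in at least one test.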
C: 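Whole-parasite assay of Trypanosoma brucei over 72 hours; the read-out is not stated. Compounds at 30 µM. Direction is inferred from retests: higher values go with stronger inhibition. Values scatter widely below zero; nearly all retest evidence comes from the higher of the two concentrations used. Of about 64,000 compounds tested this way, about 940 (1.5%) reached 50% or more in at least one test.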

CC(C)OC(=O)N1CCC(c2nnc(Cn3ccnc3)n2C)CC1 read A: 42.49%; B: 2.179%; C: -18.34%. For Cc1ccc(C(=O)N2CCSCC2)cc1NC(=O)NCCO the result was A: -2.131%; B: -4.03%; C: -38.64%. CNC(=O)C1CCCN(C(=O)OC)C1 (stereo not shown) gave A: 14.75%; B: -3.865%; C: 16.11%. For Cc1cc2c(cc1C)OC1(C=C2)CCN(CC(=O)N2CCOCC2)CC1 the result was A: 35.6%; B: -5.28%; C: 9.738%. CN1CC(C(=O)NCCc2ccn(-c3ccc(F)cc3)n2)CC1=O (stereo not shown) read A: 20.42%; B: -2.271%; C: -29.7%.

Result for CN1Cc2ccccc2NC(=O)C12CCNC2 (stereo not shown) was A: 10.78%; B: -4.062%. For COc1ccc(CNC(C)c2ccccc2Cl)c(OC)c1OC.Cl (stereo not shown) the result was A: 4.494%; C: 2.03%. With COc1cccc2c1OCC(NC(=O)NCc1cccs1)C2 (stereo not shown) the screen gave A: -9.645%; B: 3.284%; C: 34.06%. CSCCc1c(-c2ccccc2)ncn1[C@H]1C[C@@H](C(=O)O)N(C)C1 read A: 29.71%; B: -1.445%; C: 11.95%. For Cc1ccc(C(=O)N2C[C@@H]3CCCO[C@@H]3[C@H](N(C)Cc3ccco3)C2)o1 the result was B: -5.856%.

For COc1ccc(C(C)NCc2ccc(OC)c(OC)c2OC)cc1F (stereo not shown) the result was B: 3.838%. COc1ccc2c(c1)NC(=O)C2OC(=O)CCc1ccc(F)cc1 (stereo not shown) gave A: 8.942%; B: -3.989%; C: 2.977%. Result for O=C(O)C(F)(F)F.[H][C@@]12CCN(CCOCc3ccccc3)[C@]1([H])CC[C@@H](C(=O)N1CCCC1)O2 was A: 0.6831%; C: -77.05%. CCN1CCc2cc(-c3cncn3CC(=O)NC(C)(C)C)ccc21.Cl gave A: 15.34%; C: -16.31%. Cc1ccc(CN(Cc2ccncc2)C2CC(C)(C)NC(C)(C)C2)o1.O=C(O)CC(O)(CC(=O)O)C(=O)O read A: -3.762% and 11.32%; C: -22.8%.

Cc1cc(C)n(CC2CCCN2CCS(C)(=O)=O)n1 (stereo not shown) read A: 9.901%; B: -8.216%. N#CCCN(Cc1cccnc1)C(=O)c1ccn(-c2ccccc2)n1 gave A: 16.99%; B: -2.224%; C: 2.152%. Result for Cc1cnn(CC2CCCN2C(=O)CCc2cscn2)c1 (stereo not shown) was A: 5.652%; B: -6.842%; C: 7.382%. With CC(C)Cc1cc(NC(=O)c2ccc[nH]2)n(C)n1 the screen gave A: 25.19%; B: 5.196%; C: 11.66%. Result for Cc1nn(C)c(N(C)C)c1CNCc1cccnc1 was A: -23.13%; B: -1.006%; C: -40.22%.

With Cc1noc([C@@H]2CCO[C@@H]3CCN(C(=O)Cc4ccsc4)C[C@@H]32)n1 the screen gave B: 14.25%. Result for Cc1ccc(C(CNCc2ncc[nH]2)N2CCOCC2)s1 (stereo not shown) was A: 15.75%; B: -2.922%; C: -9.805%. O=C(CN1CCCC(c2ccn[nH]2)C1)Nc1nncs1 (stereo not shown) gave A: 11.72%; B: -2.514%; C: 7.116%. For [H][C@@]12COC[C@]1(CNC(=O)c1ccno1)CN(Cc1cccnc1OC)C2 the result was A: -3.182%; C: -2.99%. C=C(C)CN1CCN(CCC(=O)Nc2ccccc2C(N)=O)CC1 gave A: -14.5%; B: -0.4068%; C: -2.688%.

For Cc1c(C(=O)N2CCCC2c2cnn(C)c2)cnn1-c1ccccc1 (stereo not shown) the result was A: -5.379%; B: 1.847%; C: -9.103%. O=C1CCC2(CCCN(C(=O)c3ccccn3)CC2)N1 (stereo not shown) gave B: -2.021%. With CN(C)C(=O)N1CC2(CCN(S(C)(=O)=O)CC2)c2ccccc21 the screen gave A: 8.415%; B: -5.692%; C: -95.14%. With COCCN1CCCC1c1nccnc1Nc1nc(C)cs1 (stereo not shown) the screen gave A: 45.09%; B: 1.25%; C: 13.76%. OC[C@@H]1CCCN1c1ccc(-c2nc(COc3ccccc3)no2)cn1 gave A: -6.4%; B: 1.701%; C: -14.37%.

For CC(CNCc1ccc2c(c1)n(C)c(=O)n2C)Oc1ccccn1.Cl (stereo not shown) the result was A: -9.906%; C: -26.55%. Cc1cncc(C2CCCN(C(=O)c3cccn3C)C2)n1 (stereo not shown) read A: 26.48%; B: 0.4167%; C: -1.86%. Result for Cn1ccc2cc(CC3COCCN(C(=O)c4ccccn4)C3)ccc21 (stereo not shown) was A: -25.89%; B: -1.715%; C: -15.95%. For COc1ccc(C(=O)CCc2nc(C3CC3)no2)cc1F the result was A: -12.25%; B: 3.267%; C: -13.94%. Result for NC(=O)C1CCN(Cc2csc(-c3ncccn3)n2)CC1 was A: -0.8878%; B: 22.16%.

Cc1nc(C(C)(C)C)sc1C(=O)NCCn1cccn1 read A: 21.85%; B: 0.000006%; C: -1.149%. With CC(C)N1Cc2cccc(NCC(=O)N(C)C3CCCCC3)c2C1 the screen gave A: 17.74%; B: -0.289%; C: -26.95%. CCC(C)c1ccc(NC(=O)C2CCN(C(=O)COC)CC2)cc1 (stereo not shown) gave A: -23%; B: -1.732%; C: 0.2464%. Result for O=C(CCc1ccccn1)N1CCCC(N2CCNC2=O)C1 (stereo not shown) was A: -38.1%; B: 1.088%; C: -23.65%.

Some entries from above, unchanged:

compound	A	B	C
O=C(CN1CCCC(c2ccn[nH]2)C1)Nc1nncs1 (stereo not shown)	11.72	-2.514	7.116
CNC(=O)C1CCCN(C(=O)OC)C1 (stereo not shown)	14.75	-3.865	16.11
CC(CNCc1ccc2c(c1)n(C)c(=O)n2C)Oc1ccccn1.Cl (stereo not shown)	-9.906	-	-26.55
Cc1ccc(C(CNCc2ncc[nH]2)N2CCOCC2)s1 (stereo not shown)	15.75	-2.922	-9.805